Measured values: article PMC10889066
Results are given in words; binding and its absence hold for the method and conditions named. For part of these data: Binding seen in cells or lysates may run through a third protein. Some entries that bind do so weakly or less than the wild type. Blank lines part the entries; values can stand above or below the molecule they belong to.

Chains of the proteins cited; added tags and fusions are not shown. Lines headed by an entry give the natural chain unless they say otherwise; changes in a name come on top.
UniProt P05556: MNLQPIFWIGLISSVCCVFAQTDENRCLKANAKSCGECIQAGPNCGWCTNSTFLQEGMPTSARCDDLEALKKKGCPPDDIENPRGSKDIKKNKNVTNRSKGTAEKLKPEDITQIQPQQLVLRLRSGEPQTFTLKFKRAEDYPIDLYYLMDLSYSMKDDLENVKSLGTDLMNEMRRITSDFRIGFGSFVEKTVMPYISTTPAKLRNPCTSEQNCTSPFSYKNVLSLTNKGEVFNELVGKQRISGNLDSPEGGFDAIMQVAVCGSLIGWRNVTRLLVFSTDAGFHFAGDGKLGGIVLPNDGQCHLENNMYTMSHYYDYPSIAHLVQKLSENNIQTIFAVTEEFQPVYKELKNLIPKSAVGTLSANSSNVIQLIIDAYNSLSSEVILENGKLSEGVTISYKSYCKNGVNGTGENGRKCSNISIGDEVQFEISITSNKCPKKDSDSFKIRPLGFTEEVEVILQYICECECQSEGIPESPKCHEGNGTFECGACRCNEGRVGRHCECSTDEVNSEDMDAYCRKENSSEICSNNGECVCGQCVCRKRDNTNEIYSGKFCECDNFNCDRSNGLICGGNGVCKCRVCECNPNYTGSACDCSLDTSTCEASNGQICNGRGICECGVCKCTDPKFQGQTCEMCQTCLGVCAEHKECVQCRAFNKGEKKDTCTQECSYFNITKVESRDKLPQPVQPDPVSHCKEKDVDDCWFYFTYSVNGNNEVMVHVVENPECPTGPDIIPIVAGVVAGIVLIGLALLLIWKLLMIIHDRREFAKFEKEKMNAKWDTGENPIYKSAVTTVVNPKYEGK
UniProt Q96AC1: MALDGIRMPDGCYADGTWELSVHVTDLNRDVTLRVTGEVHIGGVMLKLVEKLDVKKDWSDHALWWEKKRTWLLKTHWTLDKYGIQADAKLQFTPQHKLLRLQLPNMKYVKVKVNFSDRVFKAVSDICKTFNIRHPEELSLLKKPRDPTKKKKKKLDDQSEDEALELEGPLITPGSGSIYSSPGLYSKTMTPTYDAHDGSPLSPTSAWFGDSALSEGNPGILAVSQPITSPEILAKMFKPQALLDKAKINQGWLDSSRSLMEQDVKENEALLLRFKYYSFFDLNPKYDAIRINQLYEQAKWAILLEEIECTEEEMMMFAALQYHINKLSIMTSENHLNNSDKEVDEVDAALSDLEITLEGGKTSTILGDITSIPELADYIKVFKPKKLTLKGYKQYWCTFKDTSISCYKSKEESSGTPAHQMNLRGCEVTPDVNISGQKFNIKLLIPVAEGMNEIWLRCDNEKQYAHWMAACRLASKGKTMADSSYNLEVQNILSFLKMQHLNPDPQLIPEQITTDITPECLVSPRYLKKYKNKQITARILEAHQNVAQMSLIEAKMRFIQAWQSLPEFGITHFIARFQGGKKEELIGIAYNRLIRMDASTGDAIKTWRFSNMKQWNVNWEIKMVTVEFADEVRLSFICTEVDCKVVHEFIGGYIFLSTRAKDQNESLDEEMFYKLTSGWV

Legend:
[1] = molecular target: T1, immobilized TβRI (UniProt P36897); assay: SPR; printed as 'surface plasmon resonance analyses (solid binding assay)'; TβRI or β1-Integrin immobilised, recombinant Kindlin-2 in solution; both purified
T1 sequence: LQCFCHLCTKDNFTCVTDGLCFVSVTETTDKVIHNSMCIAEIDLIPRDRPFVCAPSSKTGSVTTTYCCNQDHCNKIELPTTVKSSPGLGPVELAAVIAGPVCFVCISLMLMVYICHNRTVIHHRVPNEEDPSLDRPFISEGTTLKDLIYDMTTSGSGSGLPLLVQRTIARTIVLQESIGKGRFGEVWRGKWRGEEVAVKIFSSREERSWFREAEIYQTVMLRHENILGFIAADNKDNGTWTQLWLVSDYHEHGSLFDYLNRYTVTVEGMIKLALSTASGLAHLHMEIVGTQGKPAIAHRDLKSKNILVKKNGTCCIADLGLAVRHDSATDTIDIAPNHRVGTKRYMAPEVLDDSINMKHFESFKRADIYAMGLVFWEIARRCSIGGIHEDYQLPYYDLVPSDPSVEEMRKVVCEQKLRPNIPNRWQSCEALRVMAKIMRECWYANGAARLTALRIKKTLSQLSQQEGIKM

[2] = molecular target: immobilized β1-Integrin (UniProt P05556); assay: as above
[3] = molecular target: T2, TGF-β type 1 receptor (human (endogenous in MDA-MB-231)) (UniProt P36897); assay: co-IP; total protein lysates of MDA-MB-231 cells (RIPA or NP40 lysis buffer), incubated at 4°C with protein A resin and specific antibodies; endogenous proteins; western blot
T2 sequence: T1 sequence

[4] = molecular target: β1-Integrin (human (endogenous in MDA-MB-231)) (UniProt P05556); assay: as above
[5] = molecular target: Kindlin-2 (human (endogenous in MDA-MB-231)) (UniProt Q96AC1); assay: as above
[6] = molecular target: T3, TβRI (pull-down assays) (UniProt P36897); assay: pull-down; pull-down assays with Kindlin-2 and TβRI (Fig. 1F); bait, constructs and conditions not told
T3 sequence: T1 sequence

Molecule: recombinant Kindlin-2 (from UniProt Q96AC1 1-680)
binding [1]: binds
binding [2]: binds

Molecule: Kindlin-2 (from UniProt Q96AC1 1-680)
binding [3]: binds
binding [4]: binds

Molecule: β1-Integrin (from UniProt P05556 21-798) (receptor)
binding [5]: binds
binding [3]: binds

Results, then the molecule that gave them:

binding [6]: binds
Molecule: Kindlin-2 (pull-down assays) (from UniProt Q96AC1 1-680)

binding [5]: binds
binding [4]: binds
B1: TGF-β type 1 receptor (receptor, UniProt P36897 34-503)
chain: T1 sequence
